Reference: article PMC5669953
No constants are given. Whether binding was seen depends on the method and setting. In cells and extracts the contact can be indirect. Some results given as binding are weak or reduced against the parent protein; the word gives no strength. Values belong to the substance of their own block, whether it stands above or below them.

By UniProt entry, the sequences of proteins in these tests, tags left out. Residues count along the entry.
UniProt P05362, residues 28-532: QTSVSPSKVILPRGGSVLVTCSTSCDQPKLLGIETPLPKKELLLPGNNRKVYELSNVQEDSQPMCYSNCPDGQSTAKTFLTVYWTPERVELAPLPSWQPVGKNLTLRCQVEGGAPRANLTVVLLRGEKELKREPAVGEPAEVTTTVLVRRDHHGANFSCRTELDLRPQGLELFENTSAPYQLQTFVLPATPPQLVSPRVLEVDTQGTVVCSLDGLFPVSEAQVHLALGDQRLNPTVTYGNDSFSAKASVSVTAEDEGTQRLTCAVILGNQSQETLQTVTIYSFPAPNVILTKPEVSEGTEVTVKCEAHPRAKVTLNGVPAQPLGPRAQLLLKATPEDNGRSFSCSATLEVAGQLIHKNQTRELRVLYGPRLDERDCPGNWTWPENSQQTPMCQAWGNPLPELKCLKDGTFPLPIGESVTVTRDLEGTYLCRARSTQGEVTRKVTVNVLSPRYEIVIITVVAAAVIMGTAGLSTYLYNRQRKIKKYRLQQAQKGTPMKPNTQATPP
UniProt Q9UKT5: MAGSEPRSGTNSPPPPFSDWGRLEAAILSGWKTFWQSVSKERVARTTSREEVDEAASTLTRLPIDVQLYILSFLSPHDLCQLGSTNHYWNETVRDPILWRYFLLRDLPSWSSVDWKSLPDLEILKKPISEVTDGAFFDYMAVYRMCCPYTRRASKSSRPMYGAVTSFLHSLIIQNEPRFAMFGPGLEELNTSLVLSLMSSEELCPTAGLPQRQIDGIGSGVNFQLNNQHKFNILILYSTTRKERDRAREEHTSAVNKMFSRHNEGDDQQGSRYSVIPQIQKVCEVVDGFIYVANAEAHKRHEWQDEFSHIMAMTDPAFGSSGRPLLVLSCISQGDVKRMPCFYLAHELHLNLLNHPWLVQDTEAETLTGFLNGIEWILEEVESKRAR

Legend:
[1] = molecular target: Intercellular adhesion molecule-1 (ICAM-1), endogenous (human (endogenous in MDA-MB-231)) (UniProt P05362); experiment: co-IP; endogenous proteins in lysate of metastatic breast cancer cells after treatment with a proteasome inhibitor; lysis buffer 40 mM Tris-HCl pH 8.0, 120 mM NaCl, 0.1% Nonidet-P40; primary antibody overnight at 4°C, Protein A-Agarose beads 2 h; western blot
ICAM-1-HA [2] = molecular target: ICAM-1-HA (UniProt P05362); experiment: co-IP; HEK293T cells co-transfected for 48 hours with HA-tagged ICAM-1 constructs and FBXO4-Flag, MG132 for 6 hours before lysis; lysis buffer 40 mM Tris-HCl pH 8.0, 120 mM NaCl, 0.1% Nonidet-P40; Protein A-Agarose beads; western blot with anti-HA or anti-Flag
ICAM-1-HA [3] = molecular target: ICAM-1-HA (UniProt P05362); experiment: proximity ligation; in situ PLA (Duolink) in fixed, permeabilised HEK293T cells transfected with ICAM-1-HA and FBXO4-Myc, 10 μM MG132 for 6 h; anti-Myc rabbit and anti-HA mouse primary antibodies; confocal microscopy

- binding [1]: binds
Substance: E3 ligase FBXO4 (F-box protein), endogenous (from UniProt Q9UKT5 1-387)

- binding (ICAM-1-HA [2]): binds
Substance: FBXO4-Flag (from UniProt Q9UKT5 1-387)

- binding (ICAM-1-HA [3]): binds
Substance: FBXO4-Myc (from UniProt Q9UKT5 1-387)
